Reference: publication PMC2936532
These are yes or no findings as the source states them, for the method shown. Some results given as binding are weak or reduced against the parent protein; the word gives no strength. For part of these data: Tags and fused reporters may be left off the sequences shown.

By UniProt entry, the sequences of proteins in these tests, tags left out. Chains listed by the source or under a name are the forms on record and can include a tag or linker. Residues count along the entry.
UniProt Q94CL7, residues 199-409: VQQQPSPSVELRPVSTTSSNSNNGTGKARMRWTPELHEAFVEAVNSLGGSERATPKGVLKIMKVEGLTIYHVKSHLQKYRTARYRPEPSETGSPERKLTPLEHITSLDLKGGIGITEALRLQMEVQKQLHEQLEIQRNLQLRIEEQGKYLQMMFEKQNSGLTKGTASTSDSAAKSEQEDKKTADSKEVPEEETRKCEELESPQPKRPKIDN
Δ-PHR1, PHR1 deletion derivative encompassing amino acid residues 208-362, fused to the GAL4 DNA-binding domain (Q94CL7, residues 208-362): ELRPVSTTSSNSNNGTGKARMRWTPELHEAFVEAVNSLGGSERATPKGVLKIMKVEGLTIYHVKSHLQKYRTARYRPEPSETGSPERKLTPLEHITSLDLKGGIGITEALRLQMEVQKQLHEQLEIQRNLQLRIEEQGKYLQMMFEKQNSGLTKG

T1: medium-length N-terminally truncated PHL1 (PHR1-LIKE1) (Arabidopsis thaliana) (UniProt Q8GUN5)
T1 sequence: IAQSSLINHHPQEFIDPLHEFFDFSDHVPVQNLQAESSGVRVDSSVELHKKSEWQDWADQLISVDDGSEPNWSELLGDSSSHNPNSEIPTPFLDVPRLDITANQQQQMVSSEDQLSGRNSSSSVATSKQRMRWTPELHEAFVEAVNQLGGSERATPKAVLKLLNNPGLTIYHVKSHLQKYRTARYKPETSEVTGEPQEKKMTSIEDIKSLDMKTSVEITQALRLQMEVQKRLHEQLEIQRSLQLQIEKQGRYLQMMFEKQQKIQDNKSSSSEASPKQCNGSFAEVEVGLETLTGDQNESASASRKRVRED


Experiments:
[1] = target: short N-terminally truncated PHR1 (PHOSPHATE STARVATION RESPONSE REGULATOR 1) (Arabidopsis thaliana) (UniProt Q94CL7); assay: native gel or EMSA; truncated proteins translated in vitro alone or cotranslated, EMSA with a probe holding the PHR1 binding sequence P1BS; dimers read from bands of intermediate mobility of the protein-DNA complexes; mock translation mixture as control
[2] = target: T1, medium-length N-terminally truncated PHL1 (PHR1-LIKE1) (Arabidopsis thaliana); assay: as above
[3] = target: Δ-PHR1, PHR1 deletion derivative encompassing amino acid residues 208-362, fused to the GAL4 DNA-binding domain (Arabidopsis thaliana) (UniProt Q94CL7); assay: two-hybrid; Gal4 system in S. cerevisiae AH109; BD-ΔPHR1 (pGBKT7) as bait in a screen of a whole seedling cDNA library in pGADT7, confirmed by cotransformation; read on -Trp -Leu medium plus β-gal and on medium lacking Ade, His, Leu and Trp; 30°C, 2-4 days; empty pGADT7 as negative control
[4] = target: short N-terminally truncated PHL1 (PHR1-LIKE1) (Arabidopsis thaliana) (UniProt Q8GUN5); assay: native gel or EMSA; truncated proteins translated in vitro alone or cotranslated, EMSA with a probe holding the PHR1 binding sequence P1BS; dimers read from bands of intermediate mobility of the protein-DNA complexes; mock translation mixture as control

Row | binding [1] | binding [2] | binding [3] | binding [4] | Molecule
1 | binds | binds | – | – | short N-terminally truncated PHR1 (PHOSPHATE STARVATION RESPONSE REGULATOR 1) (from UniProt Q94CL7 199-409) (domain or fragment)
2 | – | – | binds | – | Δ-PHL1, PHL1 deletion lacking amino acid residues 1-60, fused to the Gal4 activation domain (domain or fragment, UniProt Q8GUN5 61-413) YLFPSSSGYCNVSAVLPHGRNLQNQPPVSTVPRDRLAMQDCPLIAQSSLINHHPQEFIDPLHEFFDFSDHVPVQNLQAESSGVRVDSSVELHKKSEWQDWADQLISVDDGSEPNWSELLGDSSSHNPNSEIPTPFLDVPRLDITANQQQQMVSSEDQLSGRNSSSSVATSKQRMRWTPELHEAFVEAVNQLGGSERATPKAVLKLLNNPGLTIYHVKSHLQKYRTARYKPETSEVTGEPQEKKMTSIEDIKSLDMKTSVEITQALRLQMEVQKRLHEQLEIQRSLQLQIEKQGRYLQMMFEKQQKIQDNKSSSSEASPKQCNGSFAEVEVGLETLTGDQNESASASRKRVRED
3 | – | binds | – | – | medium-length N-terminally truncated PHL1 (PHR1-LIKE1) (domain or fragment, UniProt Q8GUN5 104-413) IAQSSLINHHPQEFIDPLHEFFDFSDHVPVQNLQAESSGVRVDSSVELHKKSEWQDWADQLISVDDGSEPNWSELLGDSSSHNPNSEIPTPFLDVPRLDITANQQQQMVSSEDQLSGRNSSSSVATSKQRMRWTPELHEAFVEAVNQLGGSERATPKAVLKLLNNPGLTIYHVKSHLQKYRTARYKPETSEVTGEPQEKKMTSIEDIKSLDMKTSVEITQALRLQMEVQKRLHEQLEIQRSLQLQIEKQGRYLQMMFEKQQKIQDNKSSSSEASPKQCNGSFAEVEVGLETLTGDQNESASASRKRVRED
4 | – | binds | – | binds | short N-terminally truncated PHL1 (PHR1-LIKE1) (domain or fragment, UniProt Q8GUN5 211-413) MVSSEDQLSGRNSSSSVATSKQRMRWTPELHEAFVEAVNQLGGSERATPKAVLKLLNNPGLTIYHVKSHLQKYRTARYKPETSEVTGEPQEKKMTSIEDIKSLDMKTSVEITQALRLQMEVQKRLHEQLEIQRSLQLQIEKQGRYLQMMFEKQQKIQDNKSSSSEASPKQCNGSFAEVEVGLETLTGDQNESASASRKRVRED
